US20240158512A1 (TRUEBINDING, published 2024)
Results are given in words; binding and its absence hold for the method and conditions named. Some entries that bind do so weakly or less than the wild type.

By UniProt entry, the sequences of proteins in these tests, tags left out.
UniProt P17931: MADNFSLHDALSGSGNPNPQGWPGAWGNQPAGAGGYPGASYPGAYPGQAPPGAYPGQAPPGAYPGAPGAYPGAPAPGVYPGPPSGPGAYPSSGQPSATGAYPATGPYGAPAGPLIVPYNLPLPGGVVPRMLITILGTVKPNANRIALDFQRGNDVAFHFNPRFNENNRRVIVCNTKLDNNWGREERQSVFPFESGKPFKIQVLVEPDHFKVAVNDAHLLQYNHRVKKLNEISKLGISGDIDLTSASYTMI

Columns and labels:
Galectin-3 [1] = molecular target: Galectin-3 (UniProt P17931); experiment: BLI; second stability test of 20 mg/mL TB006 DS (Table 6)
Galectin-3 [2] = molecular target: Galectin-3 (UniProt P17931); experiment: BLI; stability test of 20 mg/mL TB006 DS (Table 5)
Galectin-3 [3] = molecular target: Galectin-3 (UniProt P17931); experiment: ELISA; stability test of 50 mg/mL TB006 DS (Table 7)

- binding (Galectin-3 [1]): binds
- binding (Galectin-3 [2]): binds
- binding (Galectin-3 [3]): binds
B1: TB006 (antibody, human IgG4 S228P, kappa, V domains shown)
VH: QVQLVQSGAEVKKPGASVKVSCKASGYSFTNYYMHWVRQAPGQRLEWMGWIYPGSGNTNYNEKFQGRVTITADTSASTAYMELSSLRSEDTAVYYCSTAPGGFDVWGQGTTVTVSS
VL: DIVMTQTPLSLSVTPGQPASISCKSSKSLLHSDGITYLYWYLQKPGQSPQLLIYRMSNLASGVPDRFSGSGSGTDFTLKISRVEAEDVGVYYCAQMLEFPLTFGQGTKLEIKR
